According to paper PMC5443536:
These are yes or no findings as the source states them, for the method shown. Binding can be weak; no strength is given.

Target: AddA (Caulobacter crescentus)
Assay: two-hybrid; bacterial two-hybrid: fusions to the T18 or T25 fragments of adenylate cyclase (pUT or pKT vectors), co-transformed into E. coli BTH101; spotted on MacConkey agar with maltose and IPTG, 30 °C, 2-3 days; red colonies show interaction

Substance: AddB (from UniProt A0A0H3CC48)
- binding: binds
